Experimental data from patent publication US11098257B2, “Bioderived fuels and methods of making the same” (Alliance for Sustainable Energy, LLC, priority 2019, dated 2021).

Tests used:
[1] = Cetane number (ICN) measured in an AFIDA, ASTM D8183; details: measured value (outside parentheses)
[2] = Yield sooting index measurement in doped methane/air flame; details: measured value; scale YSI-heptane=36, YSI-toluene=170.9

Row | SMILES | Cetane Number [1] | Cetane Number ([1]; listed as drawing 5) | Yield Sooting Index [2]
1 | CCCCOC(CCC)CCC [4-butoxyheptane] | 80.0 | 80 | 58
2 | CCCCCC(CCCCC)OCC [6-ethoxyundecane] |  |  | 70
3 | CCCCCCOC(CCC)CCC [4-hexoxyheptane] |  |  | 75
